Data reported in article doi:10.1101/2023.12.08.570815.
Like-named read-outs stand apart in the source and are kept apart here. No constants are given. Whether binding was seen depends on the method and setting. For some of these results: In cells and extracts the contact can be indirect. Some results given as binding are weak or reduced against the parent protein; the word gives no strength. For some of these results: Sequences can lack the tags named with a protein. Values belong to the molecule of their own block, whether it stands above or below them.

Columns and labels:
[1] = target: T1, C-terminal domain of ULK1 (amino acids 827-1050), yeast two-hybrid fusion (UniProt O75385); test: two-hybrid
T1 sequence: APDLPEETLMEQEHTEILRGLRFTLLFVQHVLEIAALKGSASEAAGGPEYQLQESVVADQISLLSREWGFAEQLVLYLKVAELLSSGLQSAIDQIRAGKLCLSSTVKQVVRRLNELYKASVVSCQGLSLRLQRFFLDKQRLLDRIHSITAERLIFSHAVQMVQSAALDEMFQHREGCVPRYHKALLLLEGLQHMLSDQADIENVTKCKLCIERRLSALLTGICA

[2] = target: T2, SHA-tagged BAG2 S31E (human (HEK293T cDNA)) (UniProt O95816); test: co-IP
T2 sequence: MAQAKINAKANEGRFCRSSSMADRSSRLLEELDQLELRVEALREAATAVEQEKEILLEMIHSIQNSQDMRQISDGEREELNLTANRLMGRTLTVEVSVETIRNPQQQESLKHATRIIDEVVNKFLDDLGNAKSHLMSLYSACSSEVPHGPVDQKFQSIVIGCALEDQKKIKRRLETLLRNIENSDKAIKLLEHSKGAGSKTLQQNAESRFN

[3] = target: SHA-tagged BAG2 wild type (human (HEK293T cDNA)) (UniProt O95816); test: co-IP
[4] = target: T3, SHA-tagged BAG2 S31A (human (HEK293T cDNA)) (UniProt O95816); test: co-IP
T3 sequence: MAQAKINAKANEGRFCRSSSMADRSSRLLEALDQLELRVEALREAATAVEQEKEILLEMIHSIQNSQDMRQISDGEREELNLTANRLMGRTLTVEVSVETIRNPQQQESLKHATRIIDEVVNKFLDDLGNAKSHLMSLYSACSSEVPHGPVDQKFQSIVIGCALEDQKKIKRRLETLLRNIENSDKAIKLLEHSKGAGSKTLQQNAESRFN

[5] = target: T2, SHA-tagged BAG2 S31E (human (HEK293T cDNA)); test: co-IP; remark: listed apart in the source
[6] = target: SHA-tagged BAG2 wild type (human (HEK293T cDNA)) (UniProt O95816); test: co-IP; remark: listed apart in the source
[7] = target: T3, SHA-tagged BAG2 S31A (human (HEK293T cDNA)); test: co-IP; remark: listed apart in the source

binding [1]: binds
Molecule: BAG2, yeast two-hybrid fusion (from UniProt O95816 1-211)

binding [2]: binds
binding [3]: binds
binding [4]: binds
Molecule: SQSTM1/p62, endogenous (from UniProt Q13501 1-440)

binding [5]: binds
binding [6]: binds
binding [7]: binds
B1: chloride ion channel CLCC1, endogenous (protein, UniProt Q96S66 19-551)
chain: HDDDWIDPTDMLNYDAASGTMRKSQAKYGISGEKDVSPDLSCADEISECYHKLDSLTYKIDECEKKKREDYESQSNPVFRRYLNKILIEAGKLGLPDENKGDMHYDAEIILKRETLLEIQKFLNGEDWKPGALDDALSDILINFKFHDFETWKWRFEDSFGVDPYNVLMVLLCLLCIVVLVATELWTYVRWYTQLRRVLIISFLFSLGWNWMYLYKLAFAQHQAEVAKMEPLNNVCAKKMDWTGSIWEWFRSSWTYKDDPCQKYYELLLVNPIWLVPPTKALAVTFTTFVTEPLKHIGKGTGEFIKALMKEIPALLHLPVLIIMALAILSFCYGAGKSVHVLRHIGGPESEPPQALRPRDRRRQEEIDYRPDGGAGDADFHYRGQMGPTEQGPYAKTYEGRREILRERDVDLRFQTGNKSPEVLRAFDVPDAEAREHPTVVPSHKSPVLDTKPKETGGILGEGTPKESSTESSQSAKPVSGQDTSGNTEGSPAAEKAQLKSEAAGSPDQGSTYSPARGVAGPRGQDPVSSPCG
